Data published in US9856220B2 (AbbVie Deutschland GmbH & Co. KG, priority 2011, dated 2018).

Columns and labels:
[1] = Determination of the microsomal half-life / microsomal clearance, rat liver microsomes; format: in vitro ADME; settings: 0.5 μM test substance, 0.25 mg of microsomal protein/ml, pH 7.4, 37° C.
Description: (§1) b) Determination of the Microsomal Half-Life:
(§2) The metabolic stability of the compounds of the invention was determined in the following assay.
(§3) The test substances were incubated in a concentration of 0.5 μM as follows:
(§4) 0.5 μM test substance are preincubated together with liver microsomes from different species (from rat, human or other species) (0.25 mg of microsomal protein/ml) in 0.05 M potassium phosphate buffer of pH 7.4 in microtiter plates at 37° C. for 5 min. The reaction is started by adding NADPH (1 mg/mL). After 0, 5, 10, 15, 20 and 30 min, 50 μl aliquots are removed, and the reaction is immediately stopped and cooled with the same volume of acetonitrile. The samples are frozen until analyzed. The remaining concentration of undegraded test substance is determined by MSMS. The half-life (T½) is determined from the gradient of the signal of test substance/unit time plot, it being possible to calculate the half-life of the test substance, assuming first order kinetics, from the decrease in the concentration of the compound with time. The microsomal clearance (mCl) is calculated from mCl=ln 2/T½/(content of microsomal protein in mg/ml)×1000 [ml/min/mg]

[2] = Determination of the microsomal half-life / microsomal clearance, human liver microsomes; format: in vitro ADME; settings: 0.5 μM test substance, 0.25 mg of microsomal protein/ml, pH 7.4, 37° C.
Description: as §1, §2, §3, §4

CCn1cc(C(=O)N[C@@H](C)c2ccc(F)cc2)c2cc(OC)c(OC)cc2c1=O [Example 165, (S)-2-Ethyl-N-(1-(4-fluorophenyl)ethyl)-6,7-dimethoxy-1-oxo-1,2-dihydroisoquinoline-4-carboxamide]
Rat mCl [1]: ++ (<100 μl min^−1 mg^−1)
Human mCl [2]: ++ (<100 μl min^−1 mg^−1)
